{"source": "patent US4591573A", "about": "(priority 1983, dated 1986)", "tested_on": "antibody to L-hyoscyamine (antiserum)", "assay_type": "binding, New Zealand white rabbit", "note": "For at least one compound, name, drawing or mass did not settle the structure.", "data": [{"compound": "CC(=O)OCC[N+](C)(C)C", "note": "[Acetylcholine, acetylcholine]", "values": [{"measurement": "% Cross-reactivity", "value": 0, "unit": "%"}, {"measurement": "recognition by / cross-reaction with the antibody", "value": "not recognized by the antibody"}]}]}
